Source: US20170334995A1
Positions count from the first letter of the chain named. These are yes or no findings as the source states them, for the method shown. A result given as binding can be weak or reduced; the word gives no strength. Blank lines part the entries; values can stand above or below the binder they belong to.

Protein sequences, listed by entry. Tags and fused reporters are not part of them. Lines headed by an entry give the natural chain unless they say otherwise; changes in a name come on top.
UniProt Q15116: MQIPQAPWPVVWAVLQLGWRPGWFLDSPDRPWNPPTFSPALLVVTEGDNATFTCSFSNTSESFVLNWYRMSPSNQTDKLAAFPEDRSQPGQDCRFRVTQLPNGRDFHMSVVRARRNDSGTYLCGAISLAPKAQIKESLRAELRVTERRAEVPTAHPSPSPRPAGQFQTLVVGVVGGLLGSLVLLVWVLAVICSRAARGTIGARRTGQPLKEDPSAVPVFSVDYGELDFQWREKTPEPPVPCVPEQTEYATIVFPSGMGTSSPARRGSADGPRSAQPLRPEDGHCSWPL

Tests used:
human PD1 ECD (human) [1] = molecular target: human PD1 ECD (human) (UniProt Q15116); test: SPR (ProteOn XPR36), antibody captured on Protein A/G, PD1 ECD as analyte
human PD1 ECD (human) [2] = molecular target: human PD1 ECD (human) (UniProt Q15116); test: SPR, summary sentence of Example 3
human PD1 ECD (human) [3] = molecular target: human PD1 ECD (human) (UniProt Q15116); test: hybridoma screening

binding (human PD1 ECD (human) [1]): binds | binding (human PD1 ECD (human) [2]): binds
B2: PD1-2 (antibody, human IgG4 S228P, kappa, V domains shown)
VH: EVMLVESGGGLVQPGGSLRLSCTASGFTFSASAMSWVRQAPGKGLEWVAYISGGGGDTYYSSSVKGRFTISRDNAKNSLYLQMNSLRAEDTAVYYCARHSNPNYYAMDYWGQGTLVTVSS
VL: EIVLTQSPATLSLSPGERATMSCRASENIDTSGISFMNWYQQKPGQAPKLLIYVASNQGSGIPARFSGSGSGTDFTLTISRLEPEDFAVYYCQQSKEVPWTFGQGTKLEIKR

binding (human PD1 ECD (human) [1]): binds | binding (human PD1 ECD (human) [2]): binds
B3: PD1-3 (antibody, human IgG4 S228P, kappa, V domains shown)
VH: B2 VH with A31K, P102V
VL: B2 VL with T31V

Continued, binder first:

B1: PD1-1 (antibody, human IgG4 S228P, kappa, V domains shown)
VH: B2 VH with P102V
VL: B2 VL
binding (human PD1 ECD (human) [1]): binds | binding (human PD1 ECD (human) [2]): binds

B4: 77E11 (antibody, V domains shown)
VH: EVMLVESGGGLVKPGGSLKLSCTASGFTFSNSAMSWVRQTPERRLEWVAYISGGGGDTYYSDSVKGRFTISRDNAKDTLYLHMSSLRSEDTALHYCARHSNSNYYAMDYWGQGTSVTVSS
VL: DIVLTQSPASLAVSLGQRATMSCRASENIDNSGISFMNWFQQKPGQPPKLLIYVASNQGSGVPARFSGSGSGTDFRLTIHPLEEDDTAMYFCQQSKEVPWTFGGGTKLEIK
binding (human PD1 ECD (human) [3]): binds
